According to PMC5146945:

Molecular target: CaTLP1-FLAG fusion protein (chickpea)
Assay: affinity purification with mass spectrometry; anti-FLAG antibody on rProtein A Sepharose; extract of 5-week-old CaTLP1-FLAG overexpressing Arabidopsis (OE-11) in 50 mM HEPES-KOH pH 7.5, 0.15 M NaCl, 0.5% Triton X-100, 0.1% Tween 20; 4 °C, 16 h; LC-ESI/MS/MS of the immunoprecipitate

B1: Casein kinase 1-like protein 2 (CK2) from Arabidopsis (protein, UniProt Q9CAI5 1-465)
chain: MEPRVGNKFRLGRKIGGGSFGEIYLGTNIQTNEEVAIKLENVKTKHPQLLYESKLYKVLQGGTGVPNVKWYGVEGDYNVLVIDLLGPSLEDLFNFCSRKLSLKTVLMLADQMINRIEFVHQKSFLHRDIKPDNFLMGLGRRANQVYVIDFGLAKKYRDSNHQHIPYRENKNLTGTARYASMNTHLGIEQSRRDDLESLGFVLMYFLKGSLPWQGLKAGNKKQKYEKISEKKVSTSIEALCRGYPSEFASYFHYCRSLRFDDKPDYAYLKRLFRDLFIREGFQFDYVFDWTILKYQQSQISTPPPRHHGPVVGPSSALPPAITSAERPSGGDEARPSGWSSGIPRRNSGQIFNSGSLAKQKAPVSSDPAISKDVVLSSSSFLRATGSSRRAAVSSSREAAVLGTDSEPSNPQIVEAGSGSNSKIPVSRNSPIVSSEINKLSSPSRATTSVMKNYEANLKGIESLHF
- binding: binds

No constants are given. Whether binding was seen depends on the method and setting. Binding seen in cells or lysates may run through a third protein. A yes stands for co-enrichment or nearness to the bait. Other partners may have been found.
